In article PMC12390755:
No constants are given. Whether binding was seen depends on the method and setting. Binding seen in cells or lysates may run through a third protein. Some results given as binding are weak or reduced against the parent protein; the word gives no strength. Sequences can lack the tags named with a protein. One block for each binder: values may come before it.

Molecular target: T1, Rmp64-3×Flag (UniProt Q8R2U2)
T1 sequence: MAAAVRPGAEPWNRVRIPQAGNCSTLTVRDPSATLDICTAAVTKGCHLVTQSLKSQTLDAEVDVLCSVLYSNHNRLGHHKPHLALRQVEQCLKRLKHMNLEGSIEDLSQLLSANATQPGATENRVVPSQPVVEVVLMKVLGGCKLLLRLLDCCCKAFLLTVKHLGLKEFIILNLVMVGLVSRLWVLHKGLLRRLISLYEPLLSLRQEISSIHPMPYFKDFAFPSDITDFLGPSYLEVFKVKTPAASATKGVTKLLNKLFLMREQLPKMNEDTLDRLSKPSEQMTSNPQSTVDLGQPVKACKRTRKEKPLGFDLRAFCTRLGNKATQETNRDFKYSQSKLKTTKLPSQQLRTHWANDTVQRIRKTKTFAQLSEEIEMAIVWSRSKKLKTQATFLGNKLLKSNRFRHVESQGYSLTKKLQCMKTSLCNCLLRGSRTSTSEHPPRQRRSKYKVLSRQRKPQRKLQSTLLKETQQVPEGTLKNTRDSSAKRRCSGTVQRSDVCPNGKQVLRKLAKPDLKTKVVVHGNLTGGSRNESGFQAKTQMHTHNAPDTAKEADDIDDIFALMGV
Test: co-IP; anti-FLAG M2 gel on E14 mESC lysate brought to 150 mM KCl (20 mM HEPES-KOH pH 7.9, 10% glycerol, 0.1% IGEPAL, 1 mM DTT), 2 h at 4 °C, Flag peptide elution, western blot of endogenous subunits

binding: no binding
B1: Rpp21 (protein, UniProt Q8R040 1-150)
chain: MAGPVKDREAFQRLSFLYQAAHCVLSQNPENQALARFYCHTEKTIAKRLVLRQDPSVKRTLCRSCSSLLIPGLTCTQRQRRRKGQRWTVQTCLTCQRSQRFLNDPKHLLWGDRPEAQLENQADINPSEPLPNIADLPKENIQTQALNTSE

binding: binds
B2: Rmp24 (protein, UniProt Q5XFZ0 1-217)
chain: MRQKYYIEAAARGLVGSCPGQARYLLWAYSSTHEDNSTFQETCPHCFQLLVLDNSRVRLKPKAKLTPKIQKLLNREARNDTLSFKEAKLLRKYKDSTSVLLITCRTCNRTVRHHGKSRSFLWALKSNAATAANKASPKTPKRTAPGSANLGQSTNGSKGKSPSLTIRTPTSGQSTPICSSRNGSKRKKHFSQLKALLSQSASDKNPKLDFRHFLSSL
